Measured data: PubChem BioAssay AID1508588 (Peter MacCallum Cancer Centre, 2020)

Assay: 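Genome-wide search for knock-downs that heighten vemurafenib action in melanoma cells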 (primary screen)
Cells: human WM266.4 melanoma cells (BRAF V600 mutant)
Knock-down reagent: siRNA pool against human genes, 40 nM
Time to read-out: 96 h from transfection to read-out
Conditions: vemurafenib 300 nM (about IC25), added 48 h after transfection, for 48 h; comparison arm got DMSO vehicle only
Read-out: 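Ratios to non-targeting siRNA for cell gain, counted as DAPI nuclei after minus before drug and averaged over two replicates, and for absorbance-read medium lactate per cell; both binned into fold-change classes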
Direction: cell gain with vemurafenib: higher = more cell gain than with non-targeting siRNA; lactate per cell with vemurafenib: higher = more lactate made per cell
Call rule: 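a knock-down counts as enhancing when its fold-change classes with vehicle and with vemurafenib, taken together, show a stronger drug effect on cell gain or lactate per cell; exact class pairs not stated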
Calls: active = enhances vemurafenib effect; inactive = no enhancement seen
Here is an unselected part of about 18,000 reagents. Of all reagents, 790 (4.4%) were called active. 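Calls rest on a combination of fold-change classes in drug and vehicle arms, not all shown here.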

The first 2 entries, to show the layout:
BLCAP
- cell gain with vemurafenib: 0.91
- lactate per cell with vemurafenib: 0.52
- outcome: inactive

CLU
- cell gain with vemurafenib: 1.29
- lactate per cell with vemurafenib: 0.38
- outcome: inactive

Main list, from the first entry:
BLCAP
- cell gain with vemurafenib: 0.91
- lactate per cell with vemurafenib: 0.52
- outcome: inactive

CLU
- cell gain with vemurafenib: 1.29
- lactate per cell with vemurafenib: 0.38
- outcome: inactive

EPB41L2
- cell gain with vemurafenib: 0.62
- lactate per cell with vemurafenib: 1.54
- outcome: inactive

OR9I1
- cell gain with vemurafenib: 0.13
- lactate per cell with vemurafenib: 0.4
- outcome: active

ETFBKMT
- cell gain with vemurafenib: 0.06
- lactate per cell with vemurafenib: 1.2
- outcome: inactive

MDFIC
- cell gain with vemurafenib: 0.75
- lactate per cell with vemurafenib: 0.86
- outcome: inactive

ZNF221
- cell gain with vemurafenib: 0.8
- lactate per cell with vemurafenib: 0.71
- outcome: inactive

FES
- cell gain with vemurafenib: 0.26
- lactate per cell with vemurafenib: 1.48
- outcome: inactive

KRABD2
- cell gain with vemurafenib: 0.74
- lactate per cell with vemurafenib: 0.58
- outcome: inactive

STRN
- cell gain with vemurafenib: 0.96
- lactate per cell with vemurafenib: 0.78
- outcome: inactive

MOB4
- cell gain with vemurafenib: 0.62
- lactate per cell with vemurafenib: 1.71
- outcome: inactive

ACY3
- cell gain with vemurafenib: 0.55
- lactate per cell with vemurafenib: 0.94
- outcome: inactive

NPC1L1
- cell gain with vemurafenib: 0.56
- lactate per cell with vemurafenib: 1.03
- outcome: inactive

XTBD1
- cell gain with vemurafenib: 0.46
- lactate per cell with vemurafenib: 0.78
- outcome: inactive

MBD5
- cell gain with vemurafenib: 0.59
- lactate per cell with vemurafenib: 0.34
- outcome: inactive

FDXR
- cell gain with vemurafenib: 0.57
- lactate per cell with vemurafenib: 0.62
- outcome: inactive

ATL2
- cell gain with vemurafenib: 1.11
- lactate per cell with vemurafenib: 0.65
- outcome: inactive

HIRIP3
- cell gain with vemurafenib: -0.05
- lactate per cell with vemurafenib: 1.64
- outcome: inactive

CYP4X1
- cell gain with vemurafenib: 0.76
- lactate per cell with vemurafenib: 0.73
- outcome: inactive

CSE1L
- cell gain with vemurafenib: 0.5
- lactate per cell with vemurafenib: 0.38
- outcome: inactive

FAAP20
- cell gain with vemurafenib: 0.21
- lactate per cell with vemurafenib: 1.15
- outcome: inactive

TMPRSS2
- cell gain with vemurafenib: 0.39
- lactate per cell with vemurafenib: 1.19
- outcome: inactive

SGMS2
- cell gain with vemurafenib: 0.93
- lactate per cell with vemurafenib: 0.32
- outcome: inactive

SACK1F
- cell gain with vemurafenib: 0.75
- lactate per cell with vemurafenib: 1.79
- outcome: inactive

SPTBN2
- cell gain with vemurafenib: 0.74
- lactate per cell with vemurafenib: 0.31
- outcome: inactive

OR2B2
- cell gain with vemurafenib: 0.92
- lactate per cell with vemurafenib: 0.45
- outcome: inactive

PARP9
- cell gain with vemurafenib: 0.65
- lactate per cell with vemurafenib: 1.16
- outcome: inactive
